Screening data, single-dose tests

By UniProt entry, the sequences of proteins in these tests, tags left out. Residues count along the entry.
UniProt Q4DA54, 1-478: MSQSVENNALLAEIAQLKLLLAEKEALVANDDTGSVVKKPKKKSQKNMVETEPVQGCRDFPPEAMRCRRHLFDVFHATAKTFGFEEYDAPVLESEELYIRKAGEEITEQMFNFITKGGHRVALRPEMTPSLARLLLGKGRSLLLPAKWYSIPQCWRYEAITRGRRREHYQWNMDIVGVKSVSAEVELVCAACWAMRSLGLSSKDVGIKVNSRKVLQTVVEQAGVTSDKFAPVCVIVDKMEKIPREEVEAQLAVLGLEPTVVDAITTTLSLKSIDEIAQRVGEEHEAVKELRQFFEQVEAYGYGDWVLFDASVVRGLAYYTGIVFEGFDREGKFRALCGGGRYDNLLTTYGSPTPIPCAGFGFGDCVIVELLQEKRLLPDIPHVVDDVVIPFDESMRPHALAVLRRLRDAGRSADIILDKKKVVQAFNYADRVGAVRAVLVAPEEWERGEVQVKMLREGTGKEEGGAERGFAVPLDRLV
UniProt Q8IDJ8, 1-583: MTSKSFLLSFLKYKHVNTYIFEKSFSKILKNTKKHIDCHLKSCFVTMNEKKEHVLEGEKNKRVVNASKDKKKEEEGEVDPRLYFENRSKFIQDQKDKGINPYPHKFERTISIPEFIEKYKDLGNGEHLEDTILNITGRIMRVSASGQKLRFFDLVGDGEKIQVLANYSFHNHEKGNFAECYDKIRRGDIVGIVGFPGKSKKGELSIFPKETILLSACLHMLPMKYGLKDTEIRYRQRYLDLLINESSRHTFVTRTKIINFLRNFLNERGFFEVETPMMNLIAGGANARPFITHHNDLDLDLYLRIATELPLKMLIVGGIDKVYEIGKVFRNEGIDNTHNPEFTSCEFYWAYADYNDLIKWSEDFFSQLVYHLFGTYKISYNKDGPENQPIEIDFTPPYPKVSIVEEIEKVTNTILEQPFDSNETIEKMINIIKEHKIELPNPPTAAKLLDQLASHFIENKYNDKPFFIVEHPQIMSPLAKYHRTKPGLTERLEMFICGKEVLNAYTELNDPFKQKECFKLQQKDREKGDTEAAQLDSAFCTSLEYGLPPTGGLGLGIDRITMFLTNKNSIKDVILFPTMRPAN

The values are deposited in ChEMBL (CHEMBL3988442, “University of Dundee, Small-Polar-MMV Screening Library” (2021)).

TcHisRS: 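Histidine-tRNA ligase, Trypanosoma cruzi CL Brener (UniProt Q4DA54). Enzyme assay of histidyl-tRNA synthetase; the read-out is not stated. Tested at 30 µM. Direction is inferred from retests: higher values go with stronger inhibition. Of about 69,000 compounds tested this way, about 31 (0.045%) reached 50% or more in at least one test.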
PfKRS1: 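Enzyme assay of the cytosolic lysyl-tRNA synthetase in 384-well plates, read by luminescence. Target: Lysine-tRNA ligase, Plasmodium falciparum 3D7 (UniProt Q8IDJ8). Compounds at 30 µM. Direction is inferred from only a few compounds that gave an IC50; most scored high, so higher reads as stronger inhibition. About 69,000 compounds were tested under these conditions; 0.071% (about 49) showed 50% or more at least once.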

Values are the deposited “Percent Effect”, in %. How 0% and 100% were set is not recorded. Most values in the screen are low, and negative values occur. The compounds are a random part of those screened.

| # | structure | TcHisRS | PfKRS1 |
|---|---|---|---|
| 1 | `Cc1ccccc1OCCC(=O)NC(C)c1nnc2n1CCCCC2` (stereo unspecified) | 7.267 | 0.2188 |
| 2 | `COc1ccc(Cl)cc1CN1CC(n2cccn2)C1` | 8.824 | 6.441 |
| 3 | `Cc1cc(C)n(CCC(=O)N2CCCCC2c2nccs2)n1` (stereo unspecified) | 2.97 | -3.827 |
| 4 | `CC(C)NC(=O)Cc1cnc(-n2cccc2)s1` | 4.969 | 0.7553 |
| 5 | `COCCNC(=O)N1CCN(C(C)C(=O)NC2CCCC2)CC1` (stereo unspecified) | 4.433 | 5.864 |
| 6 | `Cc1cc(CN(C)C2CCN(c3cccc(-c4cscn4)c3)CC2)on1` | 4.712 | 1.409 |
| 7 | `O=C(COc1cc(Cl)cc(Cl)c1)NCc1nncn1C1CC1` | 8.333 | 2.15 |
| 8 | `Cc1ccc(F)cc1-n1c(CN(C)S(C)(=O)=O)n[nH]c1=O` | 11.44 | 7.358 |
| 9 | `Cc1cc(C)n(-c2ccnc(N3CCC(C(=O)N4CCCC4)CC3)n2)n1` | 2.062 | 0.8714 |
| 10 | `CC(C)(C)c1n[nH]c(C2CN(CCNC3CCCCC3)CCO2)n1` (stereo unspecified) | 6.186 | -0.08318 |
| 11 | `Cn1nccc1C(=O)N1Cc2ccccc2OC2(CCOCC2)C1` | 1.493 | 0.192 |
| 12 | `O=C(CSc1ccc2c(c1)OCCO2)NS(=O)(=O)C1CCCCC1` | 3.252 | 2.849 |
| 13 | `O=C(Cc1ccsc1)N1CCC(c2noc(-c3cccnc3)n2)CC1` | 5.224 | 0.05376 |
| 14 | `CC(C)S(=O)(=O)N(C)C(=O)CCc1ccsc1` | -1.031 | 2.676 |
| 15 | `COCCn1cc(NCc2cn(C)nc2-c2ccncc2)cn1` | 6.897 | 16.16 |
| 16 | `CN(C)CCC1CCN(Cc2ccn(C)c(=O)c2)CC1` | 5.413 | 1.273 |
| 17 | `CC1CN(CC2CCCCC2)CCN1c1ccc2nncn2n1` (stereo unspecified) | -4.58 | -5.017 |
| 18 | `CC1CCCCN1C(=O)c1coc(COc2cccc3cnccc23)n1` (stereo unspecified) | 11.96 | 2.632 |
| 19 | `CSCC(=O)Nc1nccn1Cc1ccc(Br)cc1` | 3.448 | 3.752 |
| 20 | `CCC(C(=O)NCc1csc(N2CCOCC2)n1)n1cccn1` (stereo unspecified) | 6.186 | 0.107 |
| 21 | `Cc1cnc(CN(C)C2CCN(CCCc3cnn(C)c3)C2)o1` (stereo unspecified) | 2.825 | 2.059 |
| 22 | `Cc1ccccc1OC1CCN(C(=O)CNC(=O)N(C)C)CC1` | 1.622 | 0.4257 |
| 23 | `CC(=O)N1N=C(c2ccccc2)OC1C(=O)NCCc1ccc(Cl)cc1` (stereo unspecified) | -1.136 | 0.212 |
| 24 | `Cn1ncnc1CNc1ccc2c(c1)N(C(=O)OC(C)(C)C)CCC2` | 6.548 | -0.3039 |
| 25 | `CC(C)NC(=O)[C@@H]1C[C@H](N)CN1C(=O)C1(c2ccc(Cl)cc2)CCC1` | 11.34 | 0.1829 |
| 26 | `COc1cc(CNc2ccc(C)c(Cl)c2)ccc1OCC(N)=O` | 1.031 | 1.257 |
| 27 | `COC(=O)c1ccccc1NC(=O)c1nc2ccccc2n(C)c1=O` | 2.174 | -0.0951 |
| 28 | `CN(Cc1cscn1)Cc1cc2c(cc1Br)OCO2` | 4.762 | 3.225 |
| 29 | `CC(=O)N1CCC2(CC1)CN(C(=O)c1cccc3[nH]ccc13)C2` | 4.516 | 6.399 |
| 30 | `Cc1nn(C)c2cnn(CC(=O)NCc3ccc4c(c3)OCO4)c12` | 2.609 | 4.222 |
| 31 | `CC(C)C1SCC(=O)Nc2c1cnn2-c1ccc(Cl)cc1F` (stereo unspecified) | -0.9901 | 2.242 |
| 32 | `COCCN(Cc1ccc(F)cc1Cl)C(=O)c1ccccn1` | -1.97 | -0.3447 |
| 33 | `COCC(C)NS(=O)(=O)c1ccc(Br)cn1` (stereo unspecified) | 12.61 | 5.334 |
| 34 | `COCCNC(=O)c1cc(F)ccc1NS(C)(=O)=O` | 8.287 | 3.418 |
| 35 | `COc1cc(N2C[C@H](C(=O)N3CCCC3)[C@@H]3CCO[C@@H]3C2)ncn1` | -8.772 | -2.373 |
| 36 | `COc1ccc(CN2CCN(C(C)=O)CC3(CC(=O)N(C)C3)C2)cc1` (stereo unspecified) | 2.256 | 5.649 |
| 37 | `N#CC1(NC(=O)CN2CCC(c3ccnn3CCO)CC2)CCCC1` | 6.286 | 1.486 |
| 38 | `O=S1(=O)C[C@@H]2[C@H](C1)N(Cc1cc(F)cc(F)c1)CCN2CCO` | 7.216 | -2.008 |
| 39 | `c1ccc(COc2cccc(CNC3CCc4ncnn4C3)c2)cc1` (stereo unspecified) | 3.226 | -2.697 |
| 40 | `O=C(c1ccccn1)N1C[C@@H]2CC[C@H](C1)N(C(=O)CCN1CCCC1)C2` | -9.548 | -5.528 |
| 41 | `CC(C)NC(=O)C1CN(C(=O)Cc2ccccc2)CC12CCOCC2` (stereo unspecified) | 3.659 | -0.9323 |
| 42 | `CNC(=O)N1C[C@H]2N(c3ncccn3)CCC[C@@]2(C(=O)NCC2CC2)C1` | 10.58 | 3.406 |
| 43 | `O=C(NCCNc1cnccn1)N1CCCCCC1` | 3.152 | -0.3719 |
| 44 | `Cc1nc(C(C)(C)NC(=O)Nc2ccc(C#N)cc2)no1` | 0 | 5.122 |
| 45 | `Cc1cc(C)n(CC2CN(CC(=O)Nc3ccncc3)CCO2)n1` (stereo unspecified) | 6.322 | 1.3 |
| 46 | `COc1ccccc1OCC(=O)N1C[C@@H]2CN(C)CCO[C@@H]2C1` | 3.797 | 3.706 |
| 47 | `O=C(CCCN1CCCCC1)NC(C(=O)O)c1cccc(F)c1` (stereo unspecified) | 4.464 | 7.738 |
| 48 | `O=C(O)c1ccc2c(CN3CCOCC3)c[nH]c2c1` | 5.366 | -1.166 |
| 49 | `Cc1cnn(CC2CCCN2Cc2cc(=O)n3cccc(C)c3n2)c1` (stereo unspecified) | 10.17 | 6.013 |
| 50 | `CCOC(=O)Cc1cs/c(=N/C(=O)COc2cnc(C)cc2O)[nH]1` | 1.242 | -5.193 |
| 51 | `Cc1nc(COC[C@]23COC[C@H]2CN(Cc2ccoc2)C3)cs1` | 0.8475 | 0.7447 |
| 52 | `CCC(C(=O)NCc1ccncc1)N(c1ccc(F)cc1)S(C)(=O)=O` (stereo unspecified) | 7.821 | 2.892 |
| 53 | `COc1cc(C(=O)N(C)C(C)Cc2cc(C)ccn2)ccn1` (stereo unspecified) | 6.024 | 2.279 |
| 54 | `CCC(CC)c1cc(CNC(=O)N2CCN(CC)CC2)on1` | -3.488 | 0.3893 |

For reference, 7 entries once more:

O=C(COc1cc(Cl)cc(Cl)c1)NCc1nncn1C1CC1 gave TcHisRS: 8.333%; PfKRS1: 2.15%.
CN(C)CCC1CCN(Cc2ccn(C)c(=O)c2)CC1 gave TcHisRS: 5.413%; PfKRS1: 1.273%.
COC(=O)c1ccccc1NC(=O)c1nc2ccccc2n(C)c1=O gave TcHisRS: 2.174%; PfKRS1: -0.0951%.
COc1cc(N2C[C@H](C(=O)N3CCCC3)[C@@H]3CCO[C@@H]3C2)ncn1 gave TcHisRS: -8.772%; PfKRS1: -2.373%.
CC(=O)N1N=C(c2ccccc2)OC1C(=O)NCCc1ccc(Cl)cc1 (stereo unspecified) gave TcHisRS: -1.136%; PfKRS1: 0.212%.
CSCC(=O)Nc1nccn1Cc1ccc(Br)cc1 gave TcHisRS: 3.448%; PfKRS1: 3.752%.
CCC(CC)c1cc(CNC(=O)N2CCN(CC)CC2)on1 gave TcHisRS: -3.488%; PfKRS1: 0.3893%.